In patent publication US20200199207A1:
Results are given in words; binding and its absence hold for the method and conditions named. Some entries that bind do so weakly or less than the wild type.

Key:
Assay in all cases: ELISA, antigen-coated plate (FIG. 3)
rAra h 2 (peanut) = molecular target: T1, rAra h 2 (peanut) (UniProt Q6PSU2)
T1 sequence (looked up): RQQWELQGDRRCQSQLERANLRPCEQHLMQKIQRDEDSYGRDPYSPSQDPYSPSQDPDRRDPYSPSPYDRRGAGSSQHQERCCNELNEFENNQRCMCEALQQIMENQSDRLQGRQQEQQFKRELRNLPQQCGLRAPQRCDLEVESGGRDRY

nAra h 6 (peanut) = molecular target: T2, nAra h 6 (peanut) (UniProt Q647G9)
T2 sequence (looked up): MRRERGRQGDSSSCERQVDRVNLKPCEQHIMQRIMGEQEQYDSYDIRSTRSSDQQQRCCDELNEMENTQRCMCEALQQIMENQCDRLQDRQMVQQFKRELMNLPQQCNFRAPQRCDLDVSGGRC

nAra h 2 (peanut) = molecular target: T3, nAra h 2 (peanut) (UniProt Q6PSU2)
T3 sequence (looked up): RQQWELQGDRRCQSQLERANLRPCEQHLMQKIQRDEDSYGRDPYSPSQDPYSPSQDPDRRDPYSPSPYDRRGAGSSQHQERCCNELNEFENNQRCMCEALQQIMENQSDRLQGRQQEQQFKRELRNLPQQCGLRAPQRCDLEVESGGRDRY

nAra h 1 (peanut) = molecular target: T4, nAra h 1 (peanut) (UniProt P43238)
T4 sequence (looked up): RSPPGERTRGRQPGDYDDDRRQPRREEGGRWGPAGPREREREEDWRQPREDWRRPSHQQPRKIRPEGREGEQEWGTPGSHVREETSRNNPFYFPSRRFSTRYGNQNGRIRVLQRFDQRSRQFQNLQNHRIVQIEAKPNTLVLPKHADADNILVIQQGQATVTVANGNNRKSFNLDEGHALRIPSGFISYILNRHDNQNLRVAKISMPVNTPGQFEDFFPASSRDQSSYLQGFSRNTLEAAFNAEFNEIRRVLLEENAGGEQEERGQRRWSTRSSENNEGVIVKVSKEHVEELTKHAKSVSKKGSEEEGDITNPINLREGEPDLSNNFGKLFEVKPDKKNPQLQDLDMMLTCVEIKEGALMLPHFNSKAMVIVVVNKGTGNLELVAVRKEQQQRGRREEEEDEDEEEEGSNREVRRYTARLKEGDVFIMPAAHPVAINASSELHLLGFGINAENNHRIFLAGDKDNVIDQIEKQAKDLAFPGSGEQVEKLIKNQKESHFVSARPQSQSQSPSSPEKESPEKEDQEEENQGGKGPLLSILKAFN

Measured: binding

B1: h37D5 (antibody, V domains shown)
VH: EEQLVESGGRLLRPGESLSLSCAAVGFNFGDFGMAWVRQPPGKGLEWVAGINWSGHSTGFVDSMKGRLTISRDSAKSSLFLQMNSLRGEDTAVYYCARVGRLCSGDICDSMGAFDLWGQGTMVTVSS
VL: DIQMTQSPSTLSASIGDRVTITCRASQTIDNWLAWYQQRPGKAPKLLIYQASSLQSGVSSRFRGSGSGTEFTLTITSLQPDDFATYYCQKSNGYSRTFGQGTKVEIK
binds: all assays above

B2: h12G10 (antibody, human IgG1, V domains shown)
VH: EVQLLESGGRLLRPGGSLSLSCVASGFYFGDFGMSWVRQVPGKGLEWVSGIDWSGRSTGYVDSMKGRLTISRDNDKSSLYLQMNDLRGEDTAVYYCARVGRLCSGDSCDSMGAFDLWGQGTMVTVSS
VL: DIQLTQSPSTLSASIGDSVTITCRASQNIDNWLAWYQQKPGKAPRLLIYKASSLGSGVSSKFRGSGFGTEFTLTITSLQPDDFATYYCQKSNGYSRTFGQGTKVDIK
binds: all assays above

B3: h7G6 (antibody, V domains shown)
VH: QVQLVESGGGVVQPGRSLRLSCAASGIAFNDYTMHWVRRSPDKGLEWVAAISYGGTNKYYADSVKGRFTISRDSSKNTLFLQMDSLRVEDTAVYYCARDSGYRSLLHWGQGTLVTVSS
VL: EIVLTQSPLSLPVTPGEPASISCRSSQSLVHRNGYNYLDWYLQKPGQSPQLLIYMASKRASGVPDRFSGSGSGTEFTLKISRVEAEDVGIYYCMQALQTWTFGQGTKVEVN
binds: all assays above

B4: h32B10 (antibody, V domains shown)
VH: QVQLVQSGAEVKKPGASVKVSCRASGYIFRNFDINWVRQATGQGLEWMGWMSPKSGDTGYAQKFQGRVTMTRDTSINTAYMELSSLTSEDSAVYYCARGVDGTNWGQGTRVTVSS
VL: DIVMTQSPDSLGVSLGERATISCKSSQSILDNSNNKNFIAWFQQKPGQPPKLLIYWASARESGVPDRFSGSGSGTEFTLTINSLQAEDVAVYYCYQYYSTPHTFGQGTKLDLR
binds: all assays above

B5: h4B2 (antibody, V domains shown)
VH: QVQLQEAGPRLVKPSQTLSVTCTVSGASITIGGYYWSWIRQHPGKGLEWMGYIYSNGRTYYNPSLKSRIAMSIDTSKNQFSLKLTSVTAADTAIYFCAREAWETPLWGQGTLITVSS
VL: DIQMTQSPSSLSASVGDRVTITCQANQDIVNSLNWFQHKPGTAPKVLIYDASKLETGVPSRFSGSGSGTHFTFTISGLQPEDFATYFCQQYENLPHTFGQGTKLEIR
binds: all assays above

B6: h2F8 (antibody, V domains shown)
VH: EVQLVESGGGLVKPGGSLRLSCAASGFIFSDYNMNWVRQAPGKGLEWVSSITRSSRTIYYADSVKGRFTISRDNAKNSLHLQMNSLRDADTAVYYCAREDFDVSTGPYYMDVWGNGTTVIVSS
VL: EIVLTQSPGTLSLSPGERATLSCRASQSVSNMFLVWYQQKPGQAPRLLMYGASTRATDIPDRFSGSGSGTDFTLTISRLEPEDFAVYYCQQNGNSPYTFGQGTKLEIK
binds: all assays above
